This note sets out measurements from PubChem BioAssay AID204 (DTP/NCI, 2004).

This experiment deals with BDF1 mice, P288 methotrexate-resistant leukemia, survival T/C. The experiment in a line: NCI In Vivo Anticancer Drug Screen. Data for tumor model P288 Lymphocytic Leukemia resistant to methotrexate; NSC 740 (intraperitoneal) in B6D2F1 (BDF1) mice. Conditions: T/C endpoint: median survival time, schedule: Q01DX010 (ip), vehicle: saline, higher T/C = longer survival. The protocol: The antitumor activity of compounds was measured in mice bearing transplantable tumors. Survival or tumor size were measured and the results are expressed as the measurement made in the treated group (T) divided by the measurement made in the vehicle treated control group (C). The tumor model used in this assay is P288 Lymphocytic Leukemia resistant to methotrexate; NSC 740 (intraperitoneal) in B6D2F1 (BDF1) mice

Each structure is given as a SMILES string. The list shows only some results of the screen, not a fair sample: it covers a few groups of compounds. Other doses and runs of a compound may be missing. T/C gives the treated animals as a percentage of the vehicle group. For survival time, the PubChem record calls one and a half times the control and up active, and a quarter to a half above the control has no call in these data; cut-offs in other NCI protocols can differ. Some entries show no survivor count and are marked so; the dose need not have been tolerated. Schedule codes are those of the source, read here as Q, the interval in days (D) or hours (H), X, the number of doses. Some doses were run more than once; the values are given in rising order.

Turning to `NC(Cc1cccc(N(CCCl)CCCl)c1)C(=O)O` (centres undefined), the T/C is 100 [survivor count not shown] and 115 % of control [survivor count not shown] (dose: 0.63 mg/kg/injection); 119 [survivor count not shown] and 145 % of control [survivor count not shown] (dose: 1.25 mg/kg/injection); 111 [survivor count not shown] and 159 % of control [survivor count not shown] (dose: 2.5 mg/kg/injection); 109 % of control [survivor count not shown] (dose: 5.0 mg/kg/injection).
In the case of `NC1CCCCC1.NP(=O)(O)N(CCCl)CCCl`, the T/C (dose: 15.6 mg/kg/injection) is 140 % of control [survivor count not shown], the T/C (dose: 31.3 mg/kg/injection) is 172 % of control [survivor count not shown] and the T/C (dose: 62.5 mg/kg/injection) is 118 % of control [survivor count not shown].
For the molecule `O=C(O)CN(CCCl)CCCl`, the T/C is 121 [survivor count not shown] and 127 % of control [survivor count not shown] (dose: 0.63 mg/kg/injection); 122 [survivor count not shown] and 136 % of control [survivor count not shown] (dose: 1.25 mg/kg/injection); 136 [survivor count not shown] and 145 % of control [survivor count not shown] (dose: 2.5 mg/kg/injection); 181 % of control [survivor count not shown] (dose: 5.0 mg/kg/injection).
In the case of `NC(Cc1ccccc1N(CCCl)CCCl)C(=O)O` (centres undefined), the T/C was 104 % of control [survivor count not shown] (dose: 0.25 mg/kg/injection); 140 [survivor count not shown] and 145 % of control [survivor count not shown] (dose: 0.5 mg/kg/injection); 133 [survivor count not shown] and 172 % of control [survivor count not shown] (dose: 1.0 mg/kg/injection); 145 [survivor count not shown] and 181 % of control [survivor count not shown] (dose: 2.0 mg/kg/injection); 127 % of control [survivor count not shown] (dose: 4.0 mg/kg/injection).
As for `CC(C(=O)O)N(CCCl)CCCl` (centres undefined), the T/C is 100 [survivor count not shown] and 121 % of control [survivor count not shown] (dose: 0.5 mg/kg/injection); 127 [survivor count not shown] and 136 % of control [survivor count not shown] (dose: 1.0 mg/kg/injection); 136 [survivor count not shown] and 147 % of control [survivor count not shown] (dose: 2.0 mg/kg/injection); 100 [survivor count not shown] and 163 % of control [survivor count not shown] (dose: 4.0 mg/kg/injection).
With `ClCCN(CCCl)Cc1nc2ccccc2[nH]1`, the T/C reads like this: (dose: 1.25 mg/kg/injection) 95 % of control [survivor count not shown]; (dose: 2.5 mg/kg/injection) 95 [survivor count not shown] and 104 % of control [survivor count not shown]; (dose: 5.0 mg/kg/injection) 112 [survivor count not shown] and 122 % of control [survivor count not shown]; (dose: 10.0 mg/kg/injection) 133 [survivor count not shown] and 140 % of control [survivor count not shown].
